From PMC9753996
These are yes or no findings as the source states them, for the method shown. Binding seen in cells or lysates may run through a third protein. Some results given as binding are weak or reduced against the parent protein; the word gives no strength.

Chains of the proteins cited; added tags and fusions are not shown.
UniProt Q12778: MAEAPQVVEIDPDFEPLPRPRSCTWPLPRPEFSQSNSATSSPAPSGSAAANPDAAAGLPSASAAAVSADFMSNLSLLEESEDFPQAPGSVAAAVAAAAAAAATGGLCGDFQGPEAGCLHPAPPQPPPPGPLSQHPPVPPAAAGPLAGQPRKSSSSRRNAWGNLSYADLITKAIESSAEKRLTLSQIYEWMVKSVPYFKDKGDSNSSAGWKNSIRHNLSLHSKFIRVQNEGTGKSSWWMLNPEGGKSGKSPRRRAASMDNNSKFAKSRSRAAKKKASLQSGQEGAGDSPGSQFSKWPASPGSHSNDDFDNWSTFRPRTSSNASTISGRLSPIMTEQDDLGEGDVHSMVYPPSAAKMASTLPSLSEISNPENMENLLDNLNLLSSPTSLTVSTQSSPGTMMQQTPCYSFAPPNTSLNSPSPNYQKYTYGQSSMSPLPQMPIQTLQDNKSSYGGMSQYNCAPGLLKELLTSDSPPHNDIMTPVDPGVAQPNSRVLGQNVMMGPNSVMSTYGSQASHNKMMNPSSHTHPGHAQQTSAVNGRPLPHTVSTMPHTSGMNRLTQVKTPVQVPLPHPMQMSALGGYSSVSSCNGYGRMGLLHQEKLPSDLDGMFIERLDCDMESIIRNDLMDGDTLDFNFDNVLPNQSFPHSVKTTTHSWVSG
UniProt Q09472: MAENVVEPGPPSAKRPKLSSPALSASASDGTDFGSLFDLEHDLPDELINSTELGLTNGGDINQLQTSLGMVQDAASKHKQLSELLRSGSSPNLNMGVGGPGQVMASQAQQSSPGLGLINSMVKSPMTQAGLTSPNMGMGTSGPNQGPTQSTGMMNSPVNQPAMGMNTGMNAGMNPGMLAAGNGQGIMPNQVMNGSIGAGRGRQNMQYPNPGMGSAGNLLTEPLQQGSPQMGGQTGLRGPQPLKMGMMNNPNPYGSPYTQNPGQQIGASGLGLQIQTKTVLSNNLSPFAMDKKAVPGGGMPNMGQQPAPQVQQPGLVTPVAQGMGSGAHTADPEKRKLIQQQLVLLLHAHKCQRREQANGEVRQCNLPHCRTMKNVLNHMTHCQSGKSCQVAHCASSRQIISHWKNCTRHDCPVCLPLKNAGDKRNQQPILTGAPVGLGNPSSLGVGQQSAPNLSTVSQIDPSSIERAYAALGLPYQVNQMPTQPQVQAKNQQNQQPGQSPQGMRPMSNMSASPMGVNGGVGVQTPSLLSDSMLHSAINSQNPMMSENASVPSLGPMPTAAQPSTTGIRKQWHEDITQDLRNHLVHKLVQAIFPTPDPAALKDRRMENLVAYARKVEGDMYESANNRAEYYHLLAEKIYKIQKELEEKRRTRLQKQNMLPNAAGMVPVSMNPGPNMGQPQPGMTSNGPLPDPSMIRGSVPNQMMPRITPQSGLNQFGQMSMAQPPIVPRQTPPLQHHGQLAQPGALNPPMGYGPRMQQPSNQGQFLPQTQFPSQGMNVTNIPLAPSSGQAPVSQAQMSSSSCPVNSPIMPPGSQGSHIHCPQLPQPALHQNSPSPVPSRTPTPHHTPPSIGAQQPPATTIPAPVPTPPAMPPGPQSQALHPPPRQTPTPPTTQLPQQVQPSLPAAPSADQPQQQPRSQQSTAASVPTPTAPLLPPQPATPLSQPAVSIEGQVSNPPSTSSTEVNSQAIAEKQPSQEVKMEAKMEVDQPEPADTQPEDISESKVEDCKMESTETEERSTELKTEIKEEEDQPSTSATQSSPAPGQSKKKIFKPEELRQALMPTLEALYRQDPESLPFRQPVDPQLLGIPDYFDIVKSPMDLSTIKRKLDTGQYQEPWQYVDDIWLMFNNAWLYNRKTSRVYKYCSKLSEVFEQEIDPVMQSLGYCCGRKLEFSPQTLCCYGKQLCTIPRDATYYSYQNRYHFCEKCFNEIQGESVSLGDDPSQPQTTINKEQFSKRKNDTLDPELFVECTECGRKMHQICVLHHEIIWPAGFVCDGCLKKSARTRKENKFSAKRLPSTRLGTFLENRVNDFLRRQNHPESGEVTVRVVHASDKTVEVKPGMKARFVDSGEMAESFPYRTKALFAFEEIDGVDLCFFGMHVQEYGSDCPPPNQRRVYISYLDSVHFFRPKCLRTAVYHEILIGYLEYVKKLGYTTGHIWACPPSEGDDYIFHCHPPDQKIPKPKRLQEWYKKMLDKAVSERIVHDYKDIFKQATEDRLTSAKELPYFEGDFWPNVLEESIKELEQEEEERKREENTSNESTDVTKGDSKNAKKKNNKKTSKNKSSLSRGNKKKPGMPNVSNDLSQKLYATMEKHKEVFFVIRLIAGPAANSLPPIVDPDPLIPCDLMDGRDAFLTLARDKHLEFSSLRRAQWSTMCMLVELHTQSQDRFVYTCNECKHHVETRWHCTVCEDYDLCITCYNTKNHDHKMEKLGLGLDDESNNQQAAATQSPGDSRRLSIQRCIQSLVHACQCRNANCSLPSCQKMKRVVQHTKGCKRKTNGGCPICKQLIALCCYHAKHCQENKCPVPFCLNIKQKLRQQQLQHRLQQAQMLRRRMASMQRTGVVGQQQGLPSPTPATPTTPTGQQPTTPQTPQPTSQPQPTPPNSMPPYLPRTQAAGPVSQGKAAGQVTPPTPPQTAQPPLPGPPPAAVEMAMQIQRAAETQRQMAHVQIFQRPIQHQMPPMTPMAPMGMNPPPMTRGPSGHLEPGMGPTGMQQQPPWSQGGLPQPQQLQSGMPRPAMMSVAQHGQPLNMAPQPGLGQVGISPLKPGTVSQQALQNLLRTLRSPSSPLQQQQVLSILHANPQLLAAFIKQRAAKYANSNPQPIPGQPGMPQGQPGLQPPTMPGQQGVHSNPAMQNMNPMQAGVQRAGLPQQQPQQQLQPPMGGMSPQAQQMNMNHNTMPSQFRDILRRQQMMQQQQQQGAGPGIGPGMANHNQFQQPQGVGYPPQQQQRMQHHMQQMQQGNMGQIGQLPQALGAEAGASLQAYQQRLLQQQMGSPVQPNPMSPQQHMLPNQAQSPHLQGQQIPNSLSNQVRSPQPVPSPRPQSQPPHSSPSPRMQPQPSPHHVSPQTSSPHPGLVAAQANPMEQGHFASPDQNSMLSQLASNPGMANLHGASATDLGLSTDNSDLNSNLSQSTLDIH

Assays:
[1] = molecular target: FOXO1 (human (endogenous in MAVER1 and CCMCL1)) (UniProt Q12778); test: proximity ligation; mock-treated MAVER1 or CCMCL1 cells, cytospin, fixed with 4% paraformaldehyde, 0.2% Triton X-100; anti-FOXO1 and anti-p300 primary antibodies, Duolink In Situ Red; mean fluorescence intensity per nucleus
[2] = molecular target: 3× FLAG-tagged FOXO1 (human) (UniProt Q12778); test: co-IP; protein extracts (0.8 mg) incubated with anti-FLAG magnetic beads, normal IgG as control, 12 h at 4°C; mock-treated and cpd10-treated cells compared
[3] = molecular target: FOXO1 (human (endogenous in MAVER1 and CCMCL1)) (UniProt Q12778); test: proximity ligation; MAVER1 or CCMCL1 cells treated with 2 μM cpd10, cytospin, fixed with 4% paraformaldehyde, 0.2% Triton X-100; anti-FOXO1 and anti-p300 primary antibodies, Duolink In Situ Red; mean fluorescence intensity per nucleus

p300 (from UniProt Q09472 1-2414) was tested, and the binding [1] was “binds”, the binding [2] was “binds” and the binding [3] was “no binding (condition: with 2 μM cpd10)”.
